Results are given in words; binding and its absence hold for the method and conditions named. For some assays here: Binding seen in cells or lysates may run through a third protein. Some entries that bind do so weakly or less than the wild type. For some assays here: Sequences can lack the tags named with a protein.

Amino acid sequences for entries named in this document (tags omitted).
UniProt P13164: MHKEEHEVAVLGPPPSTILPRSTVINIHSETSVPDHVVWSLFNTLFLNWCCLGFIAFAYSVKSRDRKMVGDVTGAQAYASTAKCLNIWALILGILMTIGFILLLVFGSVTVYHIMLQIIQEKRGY

For one assay, the target named is T1, GST-ABHD17A (human) (UniProt Q96GS6).
T1 sequence: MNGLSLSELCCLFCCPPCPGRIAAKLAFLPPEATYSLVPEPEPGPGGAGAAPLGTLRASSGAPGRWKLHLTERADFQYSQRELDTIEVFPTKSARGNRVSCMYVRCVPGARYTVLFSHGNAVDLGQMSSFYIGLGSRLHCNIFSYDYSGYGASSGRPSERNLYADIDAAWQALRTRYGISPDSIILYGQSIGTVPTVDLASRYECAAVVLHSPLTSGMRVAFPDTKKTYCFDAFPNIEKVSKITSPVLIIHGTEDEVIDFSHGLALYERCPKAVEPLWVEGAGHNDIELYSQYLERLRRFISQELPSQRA
Nature of the assay: pull-down; 20 μg GST or GST-ABHD17A on Glutathione Sepharose beads, 100 μg His-IFITM1 added, 2 h at 4 °C; Coomassie Blue staining; both purified.

The target in assay [1] is T2, pGBKT7-ABHD17A (Gal4-binding domain fusion of ABHD17A) (human) (UniProt Q96GS6).
T2 sequence: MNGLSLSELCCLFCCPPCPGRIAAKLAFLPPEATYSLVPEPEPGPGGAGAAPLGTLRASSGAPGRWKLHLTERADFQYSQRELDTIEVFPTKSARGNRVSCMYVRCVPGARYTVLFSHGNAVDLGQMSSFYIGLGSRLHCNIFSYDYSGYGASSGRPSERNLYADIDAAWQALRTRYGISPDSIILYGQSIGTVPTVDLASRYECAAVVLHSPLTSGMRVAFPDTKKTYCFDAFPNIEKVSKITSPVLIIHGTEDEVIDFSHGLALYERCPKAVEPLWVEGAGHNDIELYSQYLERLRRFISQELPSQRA
As to the kind of experiment: two-hybrid; yeast AH109; pGBKT7-ABHD17A (bait) and pGADT7-IFITM1 (prey); SD-TLH and SD-TLHA with X-α-Gal, 30 °C, blue colonies.

The next assay has as its target IFITM1-VC (human) (UniProt P13164). Nature of the assay: split reporter; BiFC with Venus halves (VN 1-173, VC 174-239) in living HEK293 cells, 24 h after transfection, confocal microscopy.
The target in assay [2] is endogenous IFITM1 (interferon-inducible transmembrane 1) (human (endogenous in HEK293)) (UniProt P13164). Nature of the assay: co-IP; endogenous proteins in HEK293 lysate; anti-IFITM1 as bait antibody, normal mouse IgG as negative control; Triton X-100 buffer (20 mM Tris pH 7.4, 1% Triton-X100, 150 mM NaCl).
The next assay addresses Flag-IFITM1 (human) (UniProt P13164). As to the kind of experiment: co-IP; transfected HEK293 or A549 cells; anti-Flag on Protein A + G magnetic beads, 4 °C overnight, eluted with 3×Flag peptide; Triton X-100 buffer (20 mM Tris pH 7.4, 1% Triton-X100, 150 mM NaCl); Western blotting.

With “human His-IFITM1 recombinant protein (from UniProt P13164 1-125)”, the binding entry with GST-ABHD17A (human) is given as “binds”.
For the molecule “pGADT7-IFITM1 (activation domain fusion of IFITM1) (from UniProt P13164 1-125)”, in assay [1], the binding entry is on record as “binds”.

B1: ABHD17A-VN (protein, UniProt Q96GS6 1-310)
chain: MNGLSLSELCCLFCCPPCPGRIAAKLAFLPPEATYSLVPEPEPGPGGAGAAPLGTLRASSGAPGRWKLHLTERADFQYSQRELDTIEVFPTKSARGNRVSCMYVRCVPGARYTVLFSHGNAVDLGQMSSFYIGLGSRLHCNIFSYDYSGYGASSGRPSERNLYADIDAAWQALRTRYGISPDSIILYGQSIGTVPTVDLASRYECAAVVLHSPLTSGMRVAFPDTKKTYCFDAFPNIEKVSKITSPVLIIHGTEDEVIDFSHGLALYERCPKAVEPLWVEGAGHNDIELYSQYLERLRRFISQELPSQRA
On to B1, for which, in the assay with IFITM1-VC (human), the binding entry is “binds”.

B2: endogenous ABHD17A (α/β-hydrolase domain-containing 17A) (protein, UniProt Q96GS6 1-310)
chain: MNGLSLSELCCLFCCPPCPGRIAAKLAFLPPEATYSLVPEPEPGPGGAGAAPLGTLRASSGAPGRWKLHLTERADFQYSQRELDTIEVFPTKSARGNRVSCMYVRCVPGARYTVLFSHGNAVDLGQMSSFYIGLGSRLHCNIFSYDYSGYGASSGRPSERNLYADIDAAWQALRTRYGISPDSIILYGQSIGTVPTVDLASRYECAAVVLHSPLTSGMRVAFPDTKKTYCFDAFPNIEKVSKITSPVLIIHGTEDEVIDFSHGLALYERCPKAVEPLWVEGAGHNDIELYSQYLERLRRFISQELPSQRA
In the case of B2, the binding entry in assay [2] is “binds”.

B3: ABHD17A-EGFP (protein, UniProt Q96GS6 1-310)
chain: MNGLSLSELCCLFCCPPCPGRIAAKLAFLPPEATYSLVPEPEPGPGGAGAAPLGTLRASSGAPGRWKLHLTERADFQYSQRELDTIEVFPTKSARGNRVSCMYVRCVPGARYTVLFSHGNAVDLGQMSSFYIGLGSRLHCNIFSYDYSGYGASSGRPSERNLYADIDAAWQALRTRYGISPDSIILYGQSIGTVPTVDLASRYECAAVVLHSPLTSGMRVAFPDTKKTYCFDAFPNIEKVSKITSPVLIIHGTEDEVIDFSHGLALYERCPKAVEPLWVEGAGHNDIELYSQYLERLRRFISQELPSQRA
Regarding B3, the binding result with Flag-IFITM1 (human) is reported as “binds”.
